Test results reported in publication PMC10891134, “Bacteria employ lysine acetylation of transcriptional regulators to adapt gene expression to cellular metabolism” (Nature Communications, 2024).

Legend:
RutR AcK11 K11AcK [1] = target: RutR AcK11 K11AcK (UniProt P0ACU2); experiment: SPR; details: SPR: 100 mM potassium phosphate pH 6.4, 300 mM NaCl, 0.05% Tween20, 25 C; recombinant protein; protein details: His6
RutR AcK7 K7AcK [2] = target: RutR AcK7 K7AcK (UniProt P0ACU2); experiment: SPR; details: SPR: 100 mM potassium phosphate pH 6.4, 300 mM NaCl, 0.05% Tween20, 25 C; recombinant protein; protein details: His6
RutR AcK11 K11AcK [3] = target: RutR AcK11 K11AcK (UniProt P0ACU2); experiment: EMSA; details: EMSA: 20 mM Tris-HCl pH 7.5, 100 mM KCl, 2 mM DTT, 10% glycerol, 25 nM DNA, 30 C; recombinant protein; protein details: His6
RutR AcK95 K95AcK = RutR AcK95 K95AcK (UniProt P0ACU2); experiment: EMSA; details: EMSA: 20 mM Tris-HCl pH 7.5, 100 mM KCl, 2 mM DTT, 10% glycerol, 25 nM DNA, 30 C; recombinant protein; protein details: His6
RutR AcK150 K150AcK = RutR AcK150 K150AcK (UniProt P0ACU2); experiment: EMSA; details: EMSA: 20 mM Tris-HCl pH 7.5, 100 mM KCl, 2 mM DTT, 10% glycerol, 25 nM DNA, 30 C; recombinant protein; protein details: His6
RutR AcK21 K21AcK = RutR AcK21 K21AcK (UniProt P0ACU2); experiment: EMSA; details: EMSA: 20 mM Tris-HCl pH 7.5, 100 mM KCl, 2 mM DTT, 10% glycerol, 25 nM DNA, 30 C; recombinant protein; protein details: His6
RutR AcK7 K7AcK [4] = target: RutR AcK7 K7AcK (UniProt P0ACU2); experiment: EMSA; details: EMSA: 20 mM Tris-HCl pH 7.5, 100 mM KCl, 2 mM DTT, 10% glycerol, 25 nM DNA, 30 C; recombinant protein; protein details: His6
RutR K52Q = target: T1, RutR K52Q (UniProt P0ACU2); experiment: EMSA; details: EMSA: 20 mM Tris-HCl pH 7.5, 100 mM KCl, 2 mM DTT, 10% glycerol, 25 nM DNA, 30 C; recombinant protein; protein details: His6
T1 sequence (looked up, limits assumed): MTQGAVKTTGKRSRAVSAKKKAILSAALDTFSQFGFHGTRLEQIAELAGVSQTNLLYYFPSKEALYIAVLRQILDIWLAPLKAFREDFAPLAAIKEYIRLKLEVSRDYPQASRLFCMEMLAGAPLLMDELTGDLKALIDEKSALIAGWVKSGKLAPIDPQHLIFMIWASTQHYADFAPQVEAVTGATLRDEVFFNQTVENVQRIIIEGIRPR

“GTTTTAATGTAAATTTTGACCATTTGGTCCACTTTTTTCTGCTCGT (double strand) [biotin-boxcarA]”: binds more weakly (RutR AcK11 K11AcK [1]); binds more weakly (RutR AcK7 K7AcK [2]).

“GTTTTAATGTAAATTTTGACCATTTGGTCCACTTTTTTCTGCTCGT (double strand) [boxcarA]”: binds (RutR AcK11 K11AcK [3]); binds (RutR AcK95 K95AcK); binds (RutR AcK150 K150AcK). “GTTTTAATGTAAATTTTGACCATTTGGTCCACTTTTTTCTGCTCGT (double strand) [boxcarA]”: binds (RutR AcK21 K21AcK); binds (RutR AcK7 K7AcK [4]); binds more weakly (RutR K52Q).

“GTTTTATGTGCAACTGTTTTGACCGTTTAGTCCACTTTTTACCAGATATTTTAG (double strand) [boxrutA]”: binds (RutR AcK11 K11AcK [3]); binds (RutR AcK95 K95AcK); binds (RutR AcK150 K150AcK). “GTTTTATGTGCAACTGTTTTGACCGTTTAGTCCACTTTTTACCAGATATTTTAG (double strand) [boxrutA]”: binds (RutR AcK21 K21AcK); binds (RutR AcK7 K7AcK [4]); binds more weakly (RutR K52Q).

For at least one entry, the source does not settle the construct or the ends of the probe. For some assays here: The comparison behind a weaker result is the experiment's own reference, which may not be listed here. For some assays here: At least one verdict rests on a figure or table, not on a statement of the authors. For some assays here: Where a protein sequence is shown, tags need not be part of it.
